Assay results from paper PMC2964679, “Characterization of exceptionally thermostable single-stranded DNA-binding proteins from Thermotoga maritima and Thermotoga neapolitana” (BMC Microbiology, 2010).
Construct, isoform or probe ends are uncertain for at least one entry. At least one verdict was read from the data and is not stated in words by the source. Protein sequences can lack the tags named with them.

Target: T1, TaqSSB (Thermus aquaticus YT1) (UniProt Q9KH06)
T1 sequence (looked up, limits assumed): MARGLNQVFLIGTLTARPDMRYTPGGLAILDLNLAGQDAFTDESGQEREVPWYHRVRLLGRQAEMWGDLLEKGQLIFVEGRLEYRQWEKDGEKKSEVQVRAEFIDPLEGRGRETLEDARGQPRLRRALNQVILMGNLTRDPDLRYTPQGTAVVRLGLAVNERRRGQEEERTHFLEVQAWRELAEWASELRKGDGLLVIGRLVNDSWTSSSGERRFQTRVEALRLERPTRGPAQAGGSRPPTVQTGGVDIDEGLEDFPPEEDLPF
Test: EMSA (agarose)
Details: 100 mM NaCl, preincubation at 85-95°C, binding half-life 15 min at 85°C, 3 min at 90°C, 30 s at 95°C; 20 mM Tris-HCl pH 7.5, 1 mM EDTA, 2 or 100 mM NaCl, 25°C; EMSA 10 pmol oligo (1.5 pmol M13) with 10-200 pmol SSB in 10 µl, 2% agarose in TAE; recombinant protein; label: 5'-fluorescein (EMSA); single-stranded DNA

TTTTTTTTTTTTTTTTTTTTTTTTTTTTTTTTTTT [(dT)35]
binding result: binds
